PMC11178795, “Hydrogen peroxide is required for light-induced stomatal opening across different plant species” (Nature Communications, 2024)
Changes are numbered by the printed parent chain. Numbers in names are those of the source. Results are given in words; binding and its absence hold for the method and conditions named. For part of these data: Binding seen in cells or lysates may run through a third protein. Some entries that bind do so weakly or less than the wild type. Tags and fused reporters may be left off the sequences shown.

Chains of the proteins cited; added tags and fusions are not shown.
UniProt Q8S307: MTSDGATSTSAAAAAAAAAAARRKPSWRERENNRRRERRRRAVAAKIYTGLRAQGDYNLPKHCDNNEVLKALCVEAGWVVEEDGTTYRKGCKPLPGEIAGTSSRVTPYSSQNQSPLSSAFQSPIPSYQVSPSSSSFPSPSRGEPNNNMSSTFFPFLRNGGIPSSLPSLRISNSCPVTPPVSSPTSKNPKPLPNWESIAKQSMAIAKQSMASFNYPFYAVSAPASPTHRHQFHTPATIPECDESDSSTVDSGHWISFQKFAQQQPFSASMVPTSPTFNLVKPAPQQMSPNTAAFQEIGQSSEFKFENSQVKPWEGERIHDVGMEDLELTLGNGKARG

Tests used:
[1] = target: T1, BD-KIN10 (Arabidopsis thaliana) (UniProt Q38997); test: two-hybrid; yeast; BD-KIN10 as bait; BD-KIN10 with empty-AD vector as negative control
T1 sequence: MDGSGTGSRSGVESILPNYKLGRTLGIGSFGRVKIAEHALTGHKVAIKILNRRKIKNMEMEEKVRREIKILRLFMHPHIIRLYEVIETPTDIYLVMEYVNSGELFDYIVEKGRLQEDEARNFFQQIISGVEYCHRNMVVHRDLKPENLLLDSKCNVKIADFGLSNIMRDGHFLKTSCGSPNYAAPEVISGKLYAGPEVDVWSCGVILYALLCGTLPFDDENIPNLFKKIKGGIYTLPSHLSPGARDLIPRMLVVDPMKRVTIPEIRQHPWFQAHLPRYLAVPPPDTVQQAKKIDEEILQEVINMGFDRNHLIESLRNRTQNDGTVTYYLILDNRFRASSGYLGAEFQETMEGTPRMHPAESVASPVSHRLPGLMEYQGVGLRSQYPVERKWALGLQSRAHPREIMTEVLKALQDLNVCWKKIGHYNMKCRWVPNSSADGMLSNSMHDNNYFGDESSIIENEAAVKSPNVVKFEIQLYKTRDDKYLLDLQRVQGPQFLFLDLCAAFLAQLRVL

[2] = target: BZR1-nYFP (Arabidopsis thaliana) (UniProt Q8S307); test: split reporter; ratiometric BiFC (2in1 vector, RFP as reference) in tobacco leaf epidermal cells; at least 48 h at 22 °C after injection; mock or 1 mM H2O2 for 3 h; with or without co-expressed p35S::KIN10-CFP
[3] = target: T2, KIN10-nYFP (Arabidopsis thaliana) (UniProt Q38997); test: as above
T2 sequence: T1 sequence

[4] = target: T3, bZIP30-cYFP (Arabidopsis thaliana) (UniProt Q9SIG8); test: as above
T3 sequence: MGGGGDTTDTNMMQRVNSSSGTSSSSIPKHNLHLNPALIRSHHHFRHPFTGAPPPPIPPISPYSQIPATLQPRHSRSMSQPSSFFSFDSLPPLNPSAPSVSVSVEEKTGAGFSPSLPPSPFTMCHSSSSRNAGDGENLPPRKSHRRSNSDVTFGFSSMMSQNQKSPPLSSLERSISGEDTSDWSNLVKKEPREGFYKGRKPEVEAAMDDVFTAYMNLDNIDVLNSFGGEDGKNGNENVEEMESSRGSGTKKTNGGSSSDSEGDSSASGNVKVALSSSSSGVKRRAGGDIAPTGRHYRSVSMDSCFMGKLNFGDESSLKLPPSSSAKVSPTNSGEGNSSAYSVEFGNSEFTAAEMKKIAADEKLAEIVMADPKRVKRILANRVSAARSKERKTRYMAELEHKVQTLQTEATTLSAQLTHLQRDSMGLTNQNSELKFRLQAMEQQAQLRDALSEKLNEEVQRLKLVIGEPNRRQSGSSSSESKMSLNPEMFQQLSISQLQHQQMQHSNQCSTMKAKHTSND

[5] = target: T4, bZIP30-YFP (Arabidopsis thaliana) (UniProt Q9SIG8); test: co-IP; protein extract of 10-day-old pbZIP30::bZIP30-YFP and Col-0 seedlings; bZIP30-YFP precipitated with GFP-Trap agarose beads, 4 °C, 1 hour; blots with anti-GFP and anti-KIN10
T4 sequence: T3 sequence

B1: bZIP30 fused to the GAL4 activation domain (protein, UniProt Q9SIG8 1-519)
chain: T3 sequence
For B1, the binding [1] was “binds”.

B2: bZIP30-cYFP (protein, UniProt Q9SIG8 1-519)
chain: T3 sequence
B2 was tested, and the binding [2] was “binds”, the binding [3] was “binds” and the binding [4] was “binds”.

B3: MBP-KIN10 (enzyme, Arabidopsis thaliana, UniProt Q38997 1-512, looked up)
chain: T1 sequence
notes: KIN10, catalytic subunit of SnRK1, Arabidopsis, AT3G01090; full-length coding region without stop codon; destination vector pMAL2CGW (N-MBP); source: Escherichia coli, purified (amylose resin); not shown: MBP, N-terminal, kept
B3 was tested, and the binding [5] was “binds”.

B4: bZIP30^S18/T22A-cYFP (protein, UniProt Q9SIG8 1-519)
chain: T3 sequence with S18A, T22A
With B4 the binding [4] was “binds”.
